# Hit rate of the full screen: of about 390,000 compounds, about 610 (0.16%) were called active. Inconclusive results, whose numbers are uncertain, are shown with a selection of clear calls. Calls follow the shape of the dose curve; as a rule, active = well fitted inhibition curve with a large enough effect; inconclusive = small, poorly fitted or top-dose-only effect, or effect the other way, or another doubt; inactive = no such curve, though single readings can be large or run the other way. Potencies beside an inconclusive call are fits to weak or partial responses and may not hold up.
# Experiment: Nrf2 qHTS screen for inhibitors: counterscreen for cytotoxicity
# Settings: A549 ARE-Fluc cells, CellTiter-Fluor viability, 18-24 h; activity change, negative = cytotoxicity: at 46 µM (top of the series)
# How it was run: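 A549 ARE-Fluc cells in 5% FBS OPTI-MEM, 5000 cells/well, rested 2 h then exposed to compounds in concentration-response for 18-24 h at 37 °C. Viability by CellTiter-Fluor fluorescence (Ex 405/Em 525) after 30 min; luciferase luminescence (BugLite, 15 min, RT) read afterwards.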
# % is scaled to controls: 0 for no effect and ±100 for the full control effect; potency is read from the fitted curve at half-maximal effect.
SMILES,Potency,"activity change, negative = cytotoxicity"
CCCCCc1ccc(OCCCC[n+]2cccc(C)c2)c(CCCCC)c1,"inconclusive: 18.4 µM [falling, partial curve, poor fit]",–
COc1cc(NC(=O)CN2C(=O)C(c3ccc(Cl)cc3)=NC23CCCCC3)cc(OC)c1,"inconclusive: 23.1 µM [falling, partial curve, poor fit]",–
C[n+]1ccc(/C=C/c2c[nH]c3ccccc23)cc1,"inconclusive: 10.3 µM [falling, partial curve]",–
C/C(=N\Nc1ccc(S(N)(=O)=O)cc1[N+](=O)[O-])c1ccc2c(c1)OCO2,"inconclusive: 7.31 µM [falling, partial curve, poor fit]",–
O=C(C1CCCCC1)N(Cc1cccnc1)c1nc2c(F)cc(F)cc2s1,–,inactive: 0.0341%
COc1ccc(OC)c(NC(=O)c2c(NCc3ccc(OC)c(OC)c3)sc3c2CCC(C)C3)c1 (stereo not drawn),"inconclusive: 23.1 µM [falling, partial curve, poor fit]",–
Cc1ccccc1OCCCCn1c(C2CC(=O)N(c3ccccc3Cl)C2)nc2ccccc21 (stereo not drawn),"inconclusive: 29.1 µM [falling, single point]",–
CC(C)c1nc(SCC(=O)c2ccccc2)c2c(=O)n(C)c(=O)n(C)c2n1,"inconclusive: 0.517 µM [activator, full curve, poor fit]",–
C=Cc1ccc(Cn2c(C(=O)O)c(CNCCc3ccccc3)c3ccc(C)cc32)cc1,"inconclusive: 29.1 µM [falling, single point]",–
O=C(Nc1nc(-c2ccc(Cl)s2)cs1)c1ccncc1,–,inactive: -0.951%
O=C(N/N=C/c1sc(N2CCOCC2)nc1-c1ccccc1)c1ccccc1O,active: 23.1 µM,–
CCOC(=O)C1CCCN(c2c(C(=O)c3ccc(C)cc3)cnc3ccc(OCC)cc23)C1 (stereo not drawn),"inconclusive: 29.1 µM [falling, single point]",–
COc1ccc(CC(=O)Nc2ccc3nc(Nc4cccc(Cl)c4)cc(C)c3c2)cc1,"inconclusive: 32.6 µM [falling, partial curve, poor fit]",–
CCOc1ccc(NC(=O)CN(C)C(=O)c2cc3c(s2)CCCCC3)cc1OCC,"inconclusive: 23.1 µM [falling, single point]",–
Cc1cc(C)n2[nH]c(=O)c(N=Nc3cccc(C(F)(F)F)c3)c2n1,"inconclusive: 16.4 µM [falling, partial curve, poor fit]",–
COc1ccc(C(NC(C)=O)c2ccc3cccnc3c2O)c(OC)c1 (stereo not drawn),"inconclusive: 25.9 µM [falling, single point]",–
Cc1ccc(S(=O)(=O)N2CCCc3cc(NS(=O)(=O)c4ccc(F)cc4)ccc32)cc1,"inconclusive: 29.1 µM [falling, single point]",–
O=C1CCCC2=C1Sc1ccc(Cl)cc1N2,"inconclusive: 20.6 µM [activator, partial curve]",–
CCc1ccc(CNC(=O)Cn2nc(-c3ccc(Cl)cc3)ccc2=O)cc1,–,inactive: -4.78%
CCN(CC)S(=O)(=O)c1ccc(-c2csc(=Nc3cccc(C(F)(F)F)c3)n2Cc2ccc3c(c2)OCO3)cc1,"inconclusive: 29.1 µM [activator, partial curve, poor fit]",–
COc1ccc(OCC(=O)N2CCN(c3cccc(Cl)c3)CC2)cc1,–,inactive: -1.08%
Cc1ccc(C(=O)N/N=C(/CC(=O)c2cccs2)C(F)(F)F)cc1,"inconclusive: 29.1 µM [falling, single point]",–
Cc1ccc(NC(=O)c2ccccn2)c(Br)c1,–,inactive: 1.28%

SMILES,Potency,"activity change, negative = cytotoxicity"
N#C/C(=C\c1cn(CC(=O)O)c2ccccc12)C(=O)NCc1ccccc1,"inconclusive: 20.6 µM [falling, single point]",–
COc1ccc(C(=O)N2c3nc(-c4ccco4)nn3C3(CCCCC3)[C@@H]3CCCC[C@@H]32)cc1OC,–,inactive: -7.11%
O=C(CCCCl)Oc1ccc2cc(-c3ccc4ccccc4n3)c(=O)oc2c1,"inconclusive: 23.1 µM [activator, single point]",–
COc1ccc(-c2ccc(C)cc2)cc1C1C2C=CCC(C)C2C(=O)N1Cc1ccccc1 (stereo not drawn),–,inactive: 1.6%
Cc1ccc(/C=C/C(=O)c2ccccc(=O)c2O)c(C)c1,"inconclusive: 20.6 µM [falling, single point]",–
CCCNC(=O)c1ccc(-c2nc3ccccc3s2)s1,–,inactive: -0.0689%
CN(C)CCCNC(=O)c1cc2sc3ccccc3c2s1,"inconclusive: 7.31 µM [activator, partial curve, poor fit]",–
Nc1ccc(N2CCN(c3ccc(Cl)c(Cl)c3)CC2)cc1,–,inactive: -0.709%
Cc1cccc2cc(CN(Cc3ccco3)C(c3nnnn3CCc3ccccc3)C(C)C)c(=O)[nH]c12 (stereo not drawn),"inconclusive: 16.4 µM [falling, partial curve, poor fit]",–
CCC(=NC(CC)CO)C1=C(O)CC(C)(C)CC1=O (stereo not drawn),"inconclusive: 1.16 µM [falling, single point]",–
CCOc1ccc(NC(=S)NC23CC4CC(CC(C4)C2)C3)cc1,–,inactive: 0.0922%
CCC(C)C(=O)N1c2ccccc2C(=C2SC(C(=O)OC)=C(C(=O)OC)S2)C(=S)C1(C)C (stereo not drawn),"inconclusive: 22.4 µM [falling, single point]",–
CN(Cc1ccccc1)CC(O)COc1ccc(CNCCc2ccncc2)cc1 (stereo not drawn),"inconclusive: 0.92 µM [falling, partial curve]",–
CCOC(=O)c1cc(C(C)C)sc1NC(=O)COC(=O)c1nccnc1N,"inconclusive: 6.51 µM [activator, single point]",–
Cc1cc(C(=O)OCCN2C(=O)c3ccccc3C2=O)c2ccccc2n1,"inconclusive: 29.1 µM [falling, single point]",–
O=C(Oc1ccc(C(=S)N2CCOCC2)cc1)c1cccc(Cl)c1,–,inactive: -9.01%
CN(C)c1ccc(C=NNC(=S)Nc2ccc(F)cc2)cc1,"inconclusive: 20.6 µM [falling, partial curve, poor fit]",–
NC(=O)CC(NC(=O)Cc1ccc(Br)cc1)c1ccc(NC2CCCCCC2)c([N+](=O)[O-])c1 (stereo not drawn),"inconclusive: 20.6 µM [falling, single point]",–
COc1ccc2[nH]c(=O)c(CN(C3CCCCC3)C(c3nnnn3Cc3ccco3)C(C)C)cc2c1 (stereo not drawn),"inconclusive: 16.4 µM [falling, partial curve, poor fit]",–
CC(C)CNC(=O)C1Nc2ccc(OC(F)(F)F)cc2C2C=CCC12 (stereo not drawn),–,inactive: -19.5%
CCOC(=O)CNC(=O)c1cc2c(=O)oc3ccccc3c2s1,–,inactive: -3.57%
CC1(C)SC(=S)N(/N=C/c2ccccc2)C1N(O)C(=O)Nc1ccc([N+](=O)[O-])cc1 (stereo not drawn),"inconclusive: 14.6 µM [falling, single point]",–
CCOC(=O)c1sc2nc(CSc3ccccc3)nc(NCCN(C)C)c2c1C,"inconclusive: 14.6 µM [activator, partial curve, poor fit]",–

SMILES,Potency,"activity change, negative = cytotoxicity"
CCCc1nnc(-c2cc(OC)c(OC)c(OC)c2)o1,–,inactive: 1.43%
c1ccc2c(c1)C(=Nn1cnnc1)c1ccccc1-2,"inconclusive: 2.31 µM [falling, partial curve, poor fit]",–
CCCCNC(=O)c1c(O)c2cccc3c2n(c1=O)CCC3,–,inactive: -1.95%
CCCCN(CC)CCNC(=O)c1cc2c(=O)n(C)c3ccccc3c2n1C,"inconclusive: 29.1 µM [falling, single point]",–
CC(C)(C)NC(=S)N/N=C/c1cc(Br)c(O)c(Br)c1,"inconclusive: 7.31 µM [activator, partial curve, poor fit]",–
O=C(Nc1ccc(CN2CCOCC2)cc1)c1ccc(Cl)cc1,–,inactive: -18.4%
N#CC(C#N)=C1C=C2C=C(N3CCCCCC3)CCC2CC1 (stereo not drawn),"inconclusive: 20.6 µM [falling, single point]",–
O=C(NCCCN1CCN(c2cccc(Cl)c2)CC1)c1nc(-c2ccncc2)no1,"inconclusive: 29.1 µM [activator, partial curve, poor fit]",–
COc1ccc(Nc2nc(-c3cccc([N+](=O)[O-])c3)nc3ccccc23)cc1,–,inactive: 4.1%
COC(=O)C(=NNc1c(C)n(C)n(-c2ccccc2)c1=O)C(=O)OC,–,inactive: 1.03%
COc1ccc(C(=O)Nc2nc(C)cc(C)n2)cc1[N+](=O)[O-],"inconclusive: 25.9 µM [falling, single point]",–
Cc1ccc(S(=O)(=O)NNC(=O)c2sccc2-n2cccc2)cc1,–,inactive: -4.97%
N/C(=N/OCC(=O)Nc1cccc2ccccc12)c1nonc1N,"inconclusive: 2.91 µM [activator, partial curve, poor fit]",–
COc1cc2[nH]c(=O)n(Cc3ccc(C(=O)NCCCN4CCC(C)CC4)cc3)c(=O)c2cc1OC,"inconclusive: 8.2 µM [activator, single point]",–
CC(=NNC(=S)N1CC2CCC(CC2)C1)c1cccc(C)n1,active: 9.2 µM,–
CCOC(=O)c1cc2c(C)n(-c3ccc(C)cc3)c(C)c2ccc1=O,"inconclusive: 29.1 µM [falling, single point]",–
Cc1cc(C(=O)NC2CCCc3c2cnn3-c2ccc(C(C)(C)C)cc2)n[nH]1 (stereo not drawn),–,inactive: 13.1%
COC(=O)[C@]1(CC(C)C)N[C@H](c2ccc(-c3ccccc3)cc2)[C@@H]2C(=O)N(C)C(=O)[C@@H]21,"inconclusive: 3.26 µM [activator, partial curve, poor fit]",–
COc1ccc(OC)c(CNC(=O)c2c(C)oc3ncn(CC(C)C)c(=O)c23)c1,–,inactive: 10.9%
Cc1cccc(NC(=O)c2cnc3sc(N4CCCC4)nn3c2=O)c1C,–,inactive: 3.81%
CCN(CC(=O)Nc1c(F)cccc1F)C(=O)c1cn2ccccc2n1,–,inactive: -3.59%
COc1cccc(CN2CC34CC(c5ccc(C(C)=O)cc5)C(CC3S2(=O)=O)O4)c1 (stereo not drawn),–,inactive: -6.08%

# Four entries already listed, ordered by SMILES length, smallest number first.
SMILES,Potency,"activity change, negative = cytotoxicity"
O=C(Nc1ccc(CN2CCOCC2)cc1)c1ccc(Cl)cc1,–,inactive: -18.4%
CC(=NNC(=S)N1CC2CCC(CC2)C1)c1cccc(C)n1,active: 9.2 µM,–
CC(C)(C)NC(=S)N/N=C/c1cc(Br)c(O)c(Br)c1,"inconclusive: 7.31 µM [activator, partial curve, poor fit]",–
Cc1cc(C(=O)NC2CCCc3c2cnn3-c2ccc(C(C)(C)C)cc2)n[nH]1 (stereo not drawn),–,inactive: 13.1%

# Reference: PubChem BioAssay AID504648 (National Center for Advancing Translational Sciences (NCATS), 2011)
